Assay results taken from patent US20180222975A1.

Biological target: African green monkey IL-6 (African green monkey)
Assay: affinity studies

binding: binds
B1: 018 Fab (Fab, V domains shown)
VH: QVQLVQSGAEVKKPGSSVKVSCKASGYALSNYLIEWVRQAPGQGLEWMGVITPGSGTINYAQKFQGRVTITADESTSTAYMELSSLRSEDTAVYYCARSRWDPLYYYALEYWGQGTTVTVSS
VL: DIVMTQSPDSLAVSLGERATINCRASESVDNYGIPFMNWYQQKPGQPPKLLIYAASNRGSGVPDRFSGSGSGTDFTLTISSLQAEDVAVYYCQQSEEVPLTFGQGTKLEIKR

These are yes or no findings as the source states them, for the method shown. Binding can be weak; no strength is given.
